Source: US20080108565A1
Results are given in words; binding and its absence hold for the method and conditions named. Some entries that bind do so weakly or less than the wild type.

Amino acid sequences for entries named in this document (tags omitted). A change or cut given only in a name is not applied to a line headed by its entry. Residues count along the entry.
UniProt Q08048, residues 33-728: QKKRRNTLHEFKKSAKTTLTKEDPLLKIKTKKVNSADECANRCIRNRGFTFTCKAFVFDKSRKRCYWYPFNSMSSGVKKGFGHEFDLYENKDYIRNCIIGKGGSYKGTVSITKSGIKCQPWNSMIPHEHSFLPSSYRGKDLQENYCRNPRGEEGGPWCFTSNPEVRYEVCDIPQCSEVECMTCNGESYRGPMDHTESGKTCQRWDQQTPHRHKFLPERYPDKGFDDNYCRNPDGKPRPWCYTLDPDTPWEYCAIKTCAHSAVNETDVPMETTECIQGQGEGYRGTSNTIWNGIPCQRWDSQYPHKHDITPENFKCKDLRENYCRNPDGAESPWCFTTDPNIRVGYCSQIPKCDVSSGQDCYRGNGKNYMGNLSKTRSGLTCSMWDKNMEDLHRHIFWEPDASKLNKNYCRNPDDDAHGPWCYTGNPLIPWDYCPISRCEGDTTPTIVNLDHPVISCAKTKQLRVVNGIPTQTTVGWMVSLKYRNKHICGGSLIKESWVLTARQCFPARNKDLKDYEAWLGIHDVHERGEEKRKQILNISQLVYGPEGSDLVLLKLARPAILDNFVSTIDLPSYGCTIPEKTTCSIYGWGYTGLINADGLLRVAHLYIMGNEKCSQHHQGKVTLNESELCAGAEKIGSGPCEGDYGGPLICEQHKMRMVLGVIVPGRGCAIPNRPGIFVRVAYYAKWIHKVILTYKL
UniProt P14210, residues 32-728: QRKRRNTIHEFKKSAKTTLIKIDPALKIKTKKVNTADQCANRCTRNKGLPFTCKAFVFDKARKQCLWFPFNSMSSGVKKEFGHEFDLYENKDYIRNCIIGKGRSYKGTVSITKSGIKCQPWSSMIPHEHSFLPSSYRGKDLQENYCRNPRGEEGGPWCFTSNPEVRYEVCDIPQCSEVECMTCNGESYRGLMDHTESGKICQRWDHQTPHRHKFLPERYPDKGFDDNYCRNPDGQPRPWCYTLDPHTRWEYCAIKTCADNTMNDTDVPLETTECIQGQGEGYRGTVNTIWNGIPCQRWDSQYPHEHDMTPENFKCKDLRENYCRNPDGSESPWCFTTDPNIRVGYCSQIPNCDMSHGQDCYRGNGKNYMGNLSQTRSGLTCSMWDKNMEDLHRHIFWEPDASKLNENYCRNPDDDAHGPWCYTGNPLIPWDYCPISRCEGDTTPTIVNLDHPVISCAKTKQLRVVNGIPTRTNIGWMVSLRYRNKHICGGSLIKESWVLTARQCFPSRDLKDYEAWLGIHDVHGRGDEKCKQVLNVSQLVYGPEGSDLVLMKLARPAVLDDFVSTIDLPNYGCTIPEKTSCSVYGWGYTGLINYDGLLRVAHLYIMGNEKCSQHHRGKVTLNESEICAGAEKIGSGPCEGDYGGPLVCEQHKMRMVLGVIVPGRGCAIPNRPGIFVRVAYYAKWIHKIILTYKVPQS

Experiments:
[1] = target: mouse-human-mouse chimeric HGF protein containing the human V495-L585 HGF sequence (mouse-human-mouse chimera) (UniProt Q08048); assay: SPR, immobilized antibody
[2] = target: mouse-human-mouse chimeric HGF protein containing the human V495-L585 HGF sequence (mouse-human-mouse chimera) (UniProt Q08048); assay: SPR, immobilized antibody, yes/no
[3] = target: reduced recombinant hHGF (human) (UniProt P14210); assay: immunoblot, reduced rhHGF, antibody 5 µg/mL
[4] = target: recombinant human HGF of Example 3 (column 'human HGF' of Table 3) (human) (UniProt P14210); assay: SPR, immobilized antibody
[5] = target: recombinant mouse HGF (R&D Systems) (mouse) (UniProt Q08048); assay: SPR, immobilized antibody
[6] = target: recombinant human HGF of Example 3 (column 'human HGF' of Table 3) (human) (UniProt P14210); assay: SPR, immobilized antibody, yes/no
[7] = target: recombinant mouse HGF (R&D Systems) (mouse) (UniProt Q08048); assay: SPR, immobilized antibody, yes/no
[8] = target: reduced recombinant hHGF (human) (UniProt P14210); assay: immunoblot, reduced rhHGF

Row | binding [1] | binding [2] | binding [3] | binding [4] | binding [5] | binding [6] | binding [7] | binding [8] | Binder
1 | binds | binds | binds | binds | binds | binds | binds | binds | anti-hHGF monoclonal antibody 1F3 (antibody, mouse IgG1, kappa, V domains shown) VH: EVQLVESGGGLVQSGGSLKLSCAASGFTFSNYFMSWVRQTPEKRLEWVAYISSGGGSTYYPDSVKGRFTISRDNAKNTLYLQMSSLKSEDTAMYYCVRQGDGYYGDYAMDYWGQGTSVTVSS VL: DIQMTQSPASLSVSVGETVTITCRASENIYSNLAWYQQKQGKSPQLLVYDATHLPDGVPSRFSGSGSGTQFSLKINSLQSEDFGSYYCQHFWGTPYTFGGGTRLEIKR
2 | binds | binds | binds | binds | – | binds | – | binds | anti-hHGF monoclonal antibody 1D3 (antibody, mouse IgG1, kappa, V domains shown) VH: EVQLVESGGGLVQPGGSLKLSCAASGFTFSDYYMSWVRQTPEKRLEWVAYISSGGGSTYYPDSVKGRFTISRDNAKNTLYLQMSSLKSEDTAIYYCVRQGDGYYGDYAMDYWGQGTSVIVSS VL: DIQMTQSPASLSVSVGETVTITCRTSENIYSNLAWYQQKQGKSPQLLIYAATNLADGVPSRFSGSGSGTQFSLRINSLQSEDFGRYYCQHFWGTPYTFGGGTKLEIKR
3 | – | – | binds | binds | – | binds | – | binds | anti-hHGF monoclonal antibody 1A3 (antibody, mouse IgG1, kappa, V domains shown) VH: EVQLVESGGGLVQPGGSLKLSCAASEFTFSNYYMSWVRQTPEKRLQWVAYISPGGGSSYYPASVKGRFTISRDNAKNTLYLQMSSLKSEDTAMYYCARQGDGYYGDYAMDYWGQGTSVTVSS VL: DIQMTQSPASLSVSVGETVTITCRASENIYSNLAWYQQKQGKSPQLLVYAATNLADGVPSRFSGSGSGTQFSLKINSLQSEDFGTYYCQHFWGTPYTFGGGTKLEIKR
4 | – | – | binds | binds | – | binds | – | binds | anti-hHGF monoclonal antibody 3B6 (antibody, mouse IgG1, kappa, V domains shown) VH: QVQLQQSGAELVRPGSSVKISCKASGYVFSSYWMNWVKQRPGQGLEWIGQIYPGDGDSNYNGNFKGKATLTADKSSSTAYMQLSSLTSEDSAVYFCASQLGLRENYFDYWGQGTTLTVSS VL: DIKMTQSPSSMYASLGERVTITCKASQDIKSYLSWFQQKPGKSPKTLIYRVNRLVDGVPSRFSGSGSGQDSSLTITSLENEDMGIYYCLQYDEFPFTFGGGTKLEIKR
5 | – | – | binds | binds | binds | binds | binds | binds | anti-hHGF monoclonal antibody 2F8 (antibody, mouse IgG1, kappa, V domains shown) VH: QVQLKQSGAELVRPGTSVKMSCKASGYTFTTYYIHWVNQRPGQGLEWIGKIGPGSGSTYYNEMFKDKATLTVDTSSSTAYMQLSSLTSDDSAVYFCARRGLGRGFDYWGQGTTLTVSS VL: DIVLTQSPASLAVSLGQRATISCKASQSVDYDGNSYINWYQQKPGQPPKVLIYVASNLESGIPARFSGSGSGTDFTLNIHPVEEEDAATYYCQQSIEDPPTFGAGTKLELKR

The next lines start with the binder.

Row | Binder | binding [1] | binding [2] | binding [3] | binding [4] | binding [5] | binding [6] | binding [7] | binding [8]
6 | HE2B8-1 (antibody, human IgG1, kappa, V domains shown) VH: QVQLVQPGAEVVKPGTSVKLSCKASGYTFTTYWMHWVNQAPGQGLEWIGEINPTNGHTNYNEKFKGKATLTVDKSTSTAYMELSSLRSEDTAVYYCARNYVGSIFDYWGQGTLLTVSS VL: DIVMTQSPDSMAMSVGERVTLNCKASENVVSYVSWYQQKPGQSPKLLIYGASNRNTGVPDRFSGSGSATDFTLTISSVQAEDVADYHCGQSYNYPYTFGQGTKLEIKR | binds | binds | – | – | – | – | – | –
7 | HE2B8-4 (antibody, human IgG1, kappa, V domains shown) VH: QVQLVQPGAEVKKPGTSVKLSCKASGYTFTTYWMHWVRQAPGQGLEWIGEINPTNGHTNYNQKFQGRATLTVDKSTSTAYMELSSLRSEDTAVYYCARNYVGSIFDYWGQGTLLTVSS VL: DIVMTQSPDSLAMSLGERVTLNCKASENVVSYVSWYQQKPGQSPKLLIYGASNRESGVPDRFSGSGSATDFTLTISSVQAEDVADYHCGQSYNYPYTFGQGTKLEIKR | binds | binds | – | – | – | – | – | –
8 | HE2B8-3 (antibody, human IgG1, kappa, V domains shown) VH: QVQLVQPGAEVKKPGTSVKLSCKASGYTFTTYWMHWVRQAPGQGLEWIGEINPTNGHTNYNQKFQGRATLTVDKSTSTAYMELSSLRSEDTAVYYCARNYVGSIFDYWGQGTLLTVSS VL: DIVMTQSPDSMAMSVGERVTLNCKASENVVSYVSWYQQKPGQSPKLLIYGASNRNTGVPDRFSGSGSATDFTLTISSVQAEDVADYHCGQSYNYPYTFGQGTKLEIKR | binds | binds | – | – | – | – | – | –
9 | HE2B8-2 (antibody, human IgG1, kappa, V domains shown) VH: QVQLVQPGAEVVKPGTSVKLSCKASGYTFTTYWMHWVNQAPGQGLEWIGEINPTNGHTNYNEKFKGKATLTVDKSTSTAYMELSSLRSEDTAVYYCARNYVGSIFDYWGQGTLLTVSS VL: DIVMTQSPDSLAMSLGERVTLNCKASENVVSYVSWYQQKPGQSPKLLIYGASNRESGVPDRFSGSGSATDFTLTISSVQAEDVADYHCGQSYNYPYTFGQGTKLEIKR | binds | binds | – | – | – | – | – | –
